Reference: patent US20250041311A1, “Compound For Treating or Preventing Vimentin-Mediated Diseases” (Aluda Pharmaceuticals, Inc., priority 2021, published 2025)
Some results were stated once for a whole list of compounds, not compound by compound.

System: Huh7-NC12 cells
Experiment: PrestoBlue cell viability of liver cancer cells
Conditions: two days, concentrations exceeding 3160 nM

SMILES: O=C(Nc1ccc(Nc2nc(/C=C/c3ccccc3)nc(N3CCOCC3)n2)cc1)Nc1ccnc(Cl)c1 [Compound C52M]
- survival rate: less than 30%
